PubChem BioAssay AID504764 – Drosophila RNAi Screening Center, 2011
The deposit covers about 22,000 reagents; below is a random part of those that have a named target and a result. In the full data, 403 (1.9%) were called active. 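Unnormalised raw counts per well; ratio z-scores behind the hit calls and whether each hit raises or lowers signal are not deposited.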 A plus sign joins genes that one reagent is predicted to hit. Not stated in the record: the amount of reagent.

- Purpose: 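Knock-downs that raise or lower a Notch target reporter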 (primary screen)
- Cell system: Drosophila Kc167 cells
- Knock-down reagent: long dsRNA against Drosophila genes
- Time to read-out: about 5 days (4 days dsRNA, then 24 h after transfection)
- Treatment: transfection of constitutively active membrane-tethered Notch lacking the extracellular domain, read 24 h later
- Measured: 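Light from a Notch-responsive E(spl)m3 luciferase reporter under active Notch, with control-promoter and no-Notch reporter wells to normalise; raw counts from paired wells a and b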
- Reading the numbers: induced reporter light, run 1, well a and induced reporter light, run 1, well b: higher = more light from the Notch target reporter with active Notch; control promoter light, run 1, well a and control promoter light, run 1, well b: higher = more light from the viral control promoter (cell number, transfection, viability); uninduced reporter light, run 1, well a: higher = more light from the Notch target reporter without active Notch
- Hit rule: 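Wells with low control signal or poorly matching duplicates excluded; duplicates averaged; per source plate, z beyond ±2 for induced/control log2 ratio or beyond ±1.8 for induced/uninduced marks a hit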
- Meaning of the calls: active = modifier hit (raised or lowered Notch signal); inactive = not a hit

| gene | dsRNA | induced reporter light, run 1, well a | induced reporter light, run 1, well b | control promoter light, run 1, well a | control promoter light, run 1, well b | uninduced reporter light, run 1, well a | activity call |
| --- | --- | --- | --- | --- | --- | --- | --- |
| CG33080 | DRSC18080 | 1.33e5 | 1.36e5 | 2.44e5 | 2.53e5 | 10610 | inactive |
| CG33080 | DRSC18081 | 1.38e5 | 1.65e5 | 3.42e5 | 2.48e5 | 10400 | inactive |
| CG33080 | DRSC18285 | 1.95e5 | 1.86e5 | 4.24e5 | 3.90e5 | 15350 | inactive |
| CG13361 | DRSC17896 | 1.10e5 | 1.07e5 | 2.30e5 | 1.93e5 | 8215 | inactive |
| CG6931 | DRSC10750 | 81040 | 85265 | 81915 | 30885 | 10230 | active |
| CG34417 | DRSC17467 | 75585 | 60480 | 68750 | 64170 | 5140 | inactive |
| CG34417 | DRSC18332 | 1.22e5 | 1.13e5 | 1.56e5 | 2.17e5 | 9728 | inactive |
| CG34417 | DRSC18333 | 1.57e5 | 1.67e5 | 2.11e5 | 1.85e5 | 12465 | inactive |
| CG1824 | DRSC19796 | 1.17e5 | 90445 | 1.39e5 | 1.58e5 | 5970 | inactive |
| CG11961 | DRSC06099 | 85515 | 1.14e5 | 1.78e5 | 2.13e5 | 8340 | inactive |
| CG32081 | DRSC09861 | 1.78e5 | 2.28e5 | 2.72e5 | 3.02e5 | 13960 | inactive |
| Svip | DRSC08982 | 1.53e5 | 1.77e5 | 1.63e5 | 1.57e5 | 12805 | inactive |
| fusl | DRSC02351 | 1.88e5 | 1.84e5 | 1.75e5 | 2.06e5 | 13335 | inactive |
| CG31693 | DRSC03674 | 99735 | 88750 | 93535 | 1.21e5 | 10315 | inactive |
| CG10000 | DRSC14170 | 1.68e5 | 1.57e5 | 1.92e5 | 1.78e5 | 12945 | inactive |
| Dad1 | DRSC02263 | 2.12e5 | 2.42e5 | 1.49e5 | 1.83e5 | 28465 | inactive |
| Bhmt | DRSC02079 | 58505 | 37310 | 44360 | 62700 | 3135 | inactive |
| CG32022 | DRSC09678 | 3.51e5 | 2.95e5 | 3.46e5 | 3.53e5 | 12385 | inactive |
| CG31076 | DRSC16017 | 1.26e5 | 1.37e5 | 1.89e5 | 1.82e5 | 10520 | inactive |
| Not10 | DRSC14129 | 1.50e5 | 1.26e5 | 1.00e5 | 94905 | 11325 | inactive |
| Vps13 | DRSC06817 | 1.99e5 | 1.57e5 | 1.97e5 | 2.17e5 | 13510 | inactive |
| mRpS22 | DRSC14488 | 1.74e5 | 2.20e5 | 2.78e5 | 3.02e5 | 14095 | inactive |
| CG13157 | DRSC06282 | 95950 | 1.04e5 | 1.35e5 | 1.42e5 | 9565 | inactive |
| CG4613 | DRSC10435 | 1.96e5 | 1.31e5 | 2.46e5 | 2.33e5 | 9175 | inactive |
| CG13102 | DRSC02202 | 1.13e5 | 1.27e5 | 74135 | 1.11e5 | 17280 | inactive |
| CG1074 | DRSC12143 | 1.40e5 | 1.03e5 | 64845 | 70965 | 7770 | active |
| velo | DRSC08841 | 56675 | 58640 | 52450 | 70275 | 6532 | inactive |
| velo | DRSC09698 | 1.17e5 | 1.13e5 | 1.26e5 | 68765 | 10375 | inactive |
| CG18577 | DRSC15352 | 90795 | 75020 | 80230 | 65065 | 4630 | inactive |
| CG14085 | DRSC10089 | 1.14e5 | 87090 | 93415 | 95205 | 8830 | inactive |
| Cyp28c1 | DRSC20236 | 1.07e5 | 1.16e5 | 2.20e5 | 2.39e5 | 8160 | inactive |
| Capa | DRSC15058 | 1.76e5 | 1.93e5 | 2.29e5 | 2.68e5 | 14895 | inactive |
| Nmt | DRSC11236 | 1.83e5 | 1.74e5 | 1.99e5 | 1.38e5 | 15775 | inactive |
| CG31706 | DRSC22704 | – | – | – | – | – | inactive |
| CG33773 | DRSC14032 | 84375 | 1.06e5 | 1.24e5 | 1.04e5 | 9900 | inactive |
| Dnaaf6 | DRSC10473 | 1.78e5 | 1.80e5 | 1.75e5 | 1.56e5 | 9200 | inactive |
| Opa1 | DRSC07191 | 1.52e5 | 1.24e5 | 1.22e5 | 1.14e5 | 10375 | inactive |
| CG8520 | DRSC07206 | 93380 | 78230 | 79985 | 75255 | 7060 | inactive |
| Dlip2 | DRSC12346 | 1.56e5 | 1.16e5 | 1.20e5 | 91215 | 9425 | inactive |
| sev | DRSC20372 | 1.34e5 | 1.20e5 | 3.18e5 | 2.70e5 | 9395 | inactive |
| Rs1 | DRSC05945 | 79785 | 71565 | 68575 | 63510 | 5335 | inactive |

Entries listed so far marked active, once more:
| gene | dsRNA | induced reporter light, run 1, well a | induced reporter light, run 1, well b | control promoter light, run 1, well a | control promoter light, run 1, well b | uninduced reporter light, run 1, well a | activity call |
| --- | --- | --- | --- | --- | --- | --- | --- |
| CG6931 | DRSC10750 | 81040 | 85265 | 81915 | 30885 | 10230 | active |
| CG1074 | DRSC12143 | 1.40e5 | 1.03e5 | 64845 | 70965 | 7770 | active |

Next records follow:
| gene | dsRNA | induced reporter light, run 1, well a | induced reporter light, run 1, well b | control promoter light, run 1, well a | control promoter light, run 1, well b | uninduced reporter light, run 1, well a | activity call |
| --- | --- | --- | --- | --- | --- | --- | --- |
| Gr64b | DRSC08444 | 1.69e5 | 1.88e5 | 2.26e5 | 1.98e5 | 8650 | inactive |
| Bace | DRSC02197 | 2.08e5 | 1.86e5 | 1.97e5 | 2.02e5 | 10682 | inactive |
| CG13924 | DRSC08393 | 68505 | 1.18e5 | 1.92e5 | 1.30e5 | 6085 | inactive |
| CG12259 | DRSC14486 | 1.20e5 | 1.38e5 | 1.76e5 | 1.57e5 | 12010 | inactive |
| CG7519 | DRSC11834 | 1.24e5 | 1.06e5 | 1.34e5 | 95635 | 5730 | inactive |
| Ndfip | DRSC11201 | 1.37e5 | 1.27e5 | 1.03e5 | 97185 | 9705 | inactive |
| CG9004 | DRSC08617 | 1.30e5 | 1.47e5 | 2.31e5 | 1.68e5 | 7900 | inactive |
| CG12857 | DRSC06197 | 93785 | 98385 | 1.33e5 | 1.12e5 | 8525 | inactive |
| CG5554 | DRSC04513 | 1.45e5 | 1.33e5 | 1.47e5 | 1.38e5 | 10520 | inactive |
| Ir56c | DRSC06544 | 1.37e5 | 1.36e5 | 1.40e5 | 1.40e5 | 11625 | inactive |
| CG1698 | DRSC06640 | 1.75e5 | 1.60e5 | 1.52e5 | 1.41e5 | 15400 | inactive |
| Rab30 | DRSC03137 | 1.44e5 | 1.27e5 | 1.65e5 | 1.75e5 | 9585 | inactive |
| Trhn | DRSC08621 | 94715 | 85540 | 1.98e5 | 1.84e5 | 9760 | inactive |
| CG13786 | DRSC02289 | 1.26e5 | 85310 | 1.21e5 | 1.04e5 | 6630 | inactive |
| BEAF-32 | DRSC05927 | 1.13e5 | 85780 | 1.02e5 | 92555 | 6028 | inactive |
| da | DRSC03517 | 1.51e5 | 1.77e5 | 84535 | 1.09e5 | 14370 | inactive |
| mil | DRSC15696 | 1.42e5 | 1.58e5 | 1.79e5 | 1.90e5 | 13715 | inactive |
| Rbsn-5 | DRSC03094 | 87280 | 83810 | 84070 | 82255 | 5180 | inactive |
| Rme-8 | DRSC07054 | 1.72e5 | 1.57e5 | 1.93e5 | 1.76e5 | 15430 | inactive |
| CG42457 (retired record) + cpo | DRSC13273 | 41620 | 36820 | 39910 | 37795 | 8915 | inactive |
| CG42457 (retired record) + cpo | DRSC14503 | 11295 | 11978 | 11480 | 11825 | 2415 | inactive |
| CG42457 (retired record) + cpo | DRSC15327 | 12010 | 10495 | 14460 | 13670 | 3045 | inactive |
| CG42457 (retired record) + cpo | DRSC16926 | 20560 | 14770 | 14430 | 14795 | 3250 | inactive |
